Measured values from PubChem BioAssay AID1671190 (National Center for Advancing Translational Sciences (NCATS), 2021).
Out of some 580,000 compounds screened, about 6,100 (1.1%) were called active. The inconclusive results got no clear call from the source; some entries with a clear call stand among them for comparison. Calls come from the whole dose curve; as a rule, active = well fitted inhibition curve with a large enough effect; inconclusive = small, poorly fitted or top-dose-only effect, or another doubt; inactive = no such curve, though single readings can be large or run the other way. Potencies beside an inconclusive call are fits to weak or partial responses and may not hold up.

The chains behind the UniProt entries cited, without tags or fusion partners. Where a name states a change or a piece, a line headed by the entry shows the natural chain unless it says otherwise.
UniProt P18054: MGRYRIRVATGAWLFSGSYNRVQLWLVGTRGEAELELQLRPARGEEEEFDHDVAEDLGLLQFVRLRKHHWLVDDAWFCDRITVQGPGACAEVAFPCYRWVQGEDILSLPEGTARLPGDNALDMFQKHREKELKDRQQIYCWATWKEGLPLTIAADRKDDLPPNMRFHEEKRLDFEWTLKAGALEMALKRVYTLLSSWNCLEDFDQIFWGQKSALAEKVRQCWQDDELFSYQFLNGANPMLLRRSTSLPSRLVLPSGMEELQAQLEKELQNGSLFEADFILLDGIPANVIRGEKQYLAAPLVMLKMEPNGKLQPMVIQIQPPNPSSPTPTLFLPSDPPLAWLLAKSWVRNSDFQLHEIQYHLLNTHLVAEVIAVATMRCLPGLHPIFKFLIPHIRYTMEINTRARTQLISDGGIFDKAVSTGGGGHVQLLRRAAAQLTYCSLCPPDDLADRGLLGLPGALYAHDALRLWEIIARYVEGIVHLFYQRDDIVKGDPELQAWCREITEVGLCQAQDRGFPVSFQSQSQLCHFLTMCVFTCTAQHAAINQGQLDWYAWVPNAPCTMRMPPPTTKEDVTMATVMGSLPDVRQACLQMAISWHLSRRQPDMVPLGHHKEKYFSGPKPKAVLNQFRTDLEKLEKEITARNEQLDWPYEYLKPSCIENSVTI

These molecules were tested against Polyunsaturated fatty acid lipoxygenase ALOX12 (Homo sapiens) (UniProt P18054) (assay: Primary qHTS assay for inhibitors of human arachidonate 12S-lipoxygenase (ALOX12): Round 2). Conditions: purified 12hLO, xylenol orange hydroperoxide absorbance; activity change, negative = inhibition: at 108 µM (top of the series) unless noted.
How it was run: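 Purified human 12hLO (150 nM final) in 25 mM Hepes, 0.01% Triton X-100, pH 7.0 was preincubated 15 min at room temperature with compound. Then 40 uM arachidonic acid was added, 30 min. Hydroperoxide was read by Fe-XO absorbance ratio 573/405 nm.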
% is set by controls: 0 for no effect and ±100 for the full control effect; potency is the fitted concentration of half-maximal effect.

**Q.** With `N#C/C(=C\c1c(Oc2ccccc2F)nc2ccccn2c1=O)C(=O)NC1CCS(=O)(=O)C1` (stereo unspecified) as the molecule, how does the Potency read?
**A.** inconclusive: 44.7 µM [inhibitor, partial curve, poor fit]

**Q.** `CCOc1cccc(CNc2ccc(O)cc2)c1OCc1ccccc1Cl` was tested. Which Potency did it give?
**A.** inactive

**Q.** Which Potency does the source give for `CC(C)C(CNCc1ccccc1)N1CCCC1` (stereo unspecified) here?
**A.** inconclusive: 63.1 µM [inhibitor, partial curve, poor fit]

**Q.** Which “activity change, negative = inhibition” value does the source give for `NNc1cc2c(nn1)CCN(C(=O)c1ccccc1)C2` here?
**A.** inactive: -15.5%

**Q.** For `O=C(Oc1ccccc1-c1csnn1)c1cccs1`, which Potency is on record?
**A.** inconclusive: 50.1 µM [inhibitor, partial curve, poor fit]

**Q.** `Cc1ccccc1OCC(=O)N/N=C1\SCC(=O)N1Cc1ccccc1` was tested. Which “activity change, negative = inhibition” value did it give?
**A.** inactive: 11.1%

**Q.** How did the Potency turn out when `N#C/C(=C\c1ccc(Cl)cc1)c1nc(-c2ccco2)cs1` was run?
**A.** inconclusive: 44.7 µM [inhibitor, single point]

**Q.** `CCN(Cc1ccc(OC)c(F)c1)C(=O)CCl` was tested. Which “activity change, negative = inhibition” value did it give?
**A.** inactive: -1.89%

**Q.** For `CN(C)C(=O)c1ccc(-c2cncnc2-n2ccnc2)cc1`, which Potency is on record?
**A.** inconclusive: 17.8 µM [inhibitor, partial curve, poor fit]

**Q.** How did the “activity change, negative = inhibition” value turn out when `CCOC(=O)CNC(=O)c1ccc(OCC)cc1` was run?
**A.** inactive: -5.15%

**Q.** Which “activity change, negative = inhibition” value does the source give for `CC(=O)Nc1ccc(/C(C)=N/Nc2nc(N3CCOCC3)nc(N3CCOCC3)n2)cc1` here?
**A.** inactive: -10.4%

**Q.** Which Potency does the source give for `S=c1nc2ccccc2c2nc(-c3cccnc3)[nH]n12` here?
**A.** inconclusive: 3.16 µM [inhibitor, full curve, poor fit]

**Q.** For `Cc1ccc(C)c(N2CCN(C(=O)CCS(=O)(=O)c3ccc4c(c3)CC(=O)N4C)CC2)c1`, which Potency is on record?
**A.** inconclusive: 141 µM [inhibitor, single point]

**Q.** `Cc1ccc(NS(=O)(=O)c2cc([N+](=O)[O-])ccc2N/N=C/c2ccc(C#N)cc2)c(C)c1` was tested. Which Potency did it give?
**A.** inconclusive: 5.62 µM [inhibitor, full curve, poor fit]

**Q.** For `COc1ccccc1/C=C/C=N/N1CCN(c2ccccn2)CC1`, which Potency is on record?
**A.** inconclusive: 50.1 µM [inhibitor, partial curve]

**Q.** For `S=C(NCCCN1CCOCC1)Nc1ccc(Nc2ccccc2)cc1`, which “activity change, negative = inhibition” value is on record?
**A.** inactive: -24.9%

**Q.** For `COc1ccc(-c2onc(C)c2C)cc1S(=O)(=O)NCc1ccc(Br)cc1`, which Potency is on record?
**A.** inconclusive: 56.2 µM [inhibitor, partial curve, poor fit]

**Q.** Which Potency does the source give for `Cc1ccc(-c2nc(-c3cccnc3)sc2CC(=O)Nc2ccc(C)c(Cl)c2)cc1` here?
**A.** inconclusive: 50.1 µM [inhibitor, partial curve, poor fit]

**Q.** With `Cc1ccc(-c2[nH]ncc2C(=O)c2ccc(Br)cc2)c(O)c1` as the molecule, how does the Potency read?
**A.** inconclusive: 44.7 µM [inhibitor, partial curve, poor fit]

**Q.** `COc1cc(-c2ccc(N=Nc3ccc4c(S(=O)(=O)O)cc(S(=O)(=O)O)c(N)c4c3O)c(OC)c2)ccc1N=Nc1ccc2c(S(=O)(=O)O)cc(S(=O)(=O)O)c(N)c2c1O` was tested. Which Potency did it give?
**A.** inconclusive: 39.8 µM [inhibitor, single point]

**Q.** For `Cc1ccc(NC(=O)CCNS(=O)(=O)c2ccc3[nH]c(=O)oc3c2)cc1C`, which “activity change, negative = inhibition” value is on record?
**A.** inactive: -10.2%

**Q.** With `CCCCn1c(-c2cccc(Br)c2)nc2cc3[nH]c(=O)c(C(C)C)nc3cc21` as the molecule, how does the “activity change, negative = inhibition” value read?
**A.** inactive: 13.2%

**Q.** Which Potency does the source give for `CC(=O)N1CCN(c2ccc(NCc3cccs3)cc2)CC1` here?
**A.** inconclusive: 15.8 µM [inhibitor, full curve]

**Q.** With `CCN(CC)CCOC(=O)C(c1ccccc1)C1CCCCC1` (stereo unspecified) as the molecule, how does the Potency read?
**A.** inconclusive: 50.1 µM [inhibitor, partial curve]

**Q.** With `CN(C)CCCN1c2ccc(O)cc2Sc2ccc(Cl)cc21` as the molecule, how does the Potency read?
**A.** inconclusive: 50.1 µM [inhibitor, partial curve, poor fit]

**Q.** For `COC(=O)c1ccccc1NC(=O)NC1CC1`, which “activity change, negative = inhibition” value is on record?
**A.** inactive: -8.07%

**Q.** How did the Potency turn out when `Cc1nc2sc(C(=O)Nc3ccc(F)cc3)c(N)c2c(-c2ccc(Br)cc2)c1C(=O)Nc1ccc(Cl)cc1` was run?
**A.** inconclusive: 158 µM [inhibitor, partial curve, poor fit]

**Q.** For `CCOC(=O)c1sc(Nc2ccccc2)nc1C`, which Potency is on record?
**A.** inconclusive: 12.6 µM [inhibitor, full curve]

**Q.** `COC(=O)c1sccc1NC(=O)CN(C)NS(=O)(=O)c1ccc(F)cc1` was tested. Which “activity change, negative = inhibition” value did it give?
**A.** inactive: 32.3%

**Q.** Which “activity change, negative = inhibition” value does the source give for `CCOC(=O)N1CCN(C(=O)CSc2nnc(-c3cc(OC)ccc3OC)o2)CC1` here?
**A.** inactive: 50.4%

**Q.** With `COC(=O)c1ccc(NC(=O)CC2C(=O)N(c3ccc(F)cc3)C(=O)N2Cc2ccc(OC)cc2)cc1` (stereo unspecified) as the molecule, how does the activity change, negative = inhibition read?
**A.** inconclusive: -40.3% [inhibitor]

**Q.** How did the “activity change, negative = inhibition” value turn out when `CC(=O)Nc1ccc(CN(C)c2c(C)nc3ccc(C(=O)N4CCN(c5ccccc5)CC4)cn23)cc1` was run?
**A.** inactive: -11.6%

**Q.** `CCN(C(=O)COC(=O)c1ccc2ccccc2c1)c1c(N)n(Cc2ccccc2)c(=O)[nH]c1=O` was tested. Which “activity change, negative = inhibition” value did it give?
**A.** inactive: -2.98%

**Q.** How did the Potency turn out when `NC(=O)Nc1ccc(C(=O)OCC(=O)Nc2cccc(S(=O)(=O)NC3=NCCC3)c2)cc1` was run?
**A.** inconclusive: 3.98 µM [inhibitor, full curve, poor fit]

**Q.** `COc1ccc(N(CC(=O)Nc2ccc(Cl)cc2)S(=O)(=O)c2c(C)n[nH]c2C)cc1` was tested. Which Potency did it give?
**A.** inconclusive: 28.2 µM [inhibitor, partial curve]

**Q.** `N#Cc1ccc(C(=O)Nc2ccc([C@H]3OCC(=O)N(Cc4ccc(F)cc4)[C@@H]3CO)cc2)cc1` was tested. Which “activity change, negative = inhibition” value did it give?
**A.** inactive: -14.6%

**Q.** `Cc1ccc(F)c(Nc2ncnc3c2oc2ccccc23)c1` was tested. Which Potency did it give?
**A.** active: 4.47 µM

**Q.** `CCCn1nc(C(=O)Nc2cccc(C)c2C)c2ccccc2c1=O` was tested. Which “activity change, negative = inhibition” value did it give?
**A.** inactive: -7.11%

**Q.** For `COc1ccc(Cl)c2sc(NC(=O)C3=COCCO3)nc12`, which “activity change, negative = inhibition” value is on record?
**A.** inactive: -17.2%

**Q.** Which “activity change, negative = inhibition” value does the source give for `COCCOCCCNC(=O)CCNC(=O)c1ccc(C(C)(C)C)cc1` here?
**A.** inactive: 2.24%

**Q.** `Cc1cncnc1C1CCN(c2cc(C3CC(N)C3)ncn2)CC1` (stereo unspecified) was tested. Which Potency did it give?
**A.** active: 14.1 µM

**Q.** How did the “activity change, negative = inhibition” value turn out when `OCCN1CCN(C(=S)c2ccc(Cl)cc2)CC1` was run?
**A.** inactive: 0%

**Q.** With `Cc1ccc2nc(C)cc(Nc3ccc(C)c(C)c3)c2c1` as the molecule, how does the Potency read?
**A.** inconclusive: 44.7 µM [inhibitor, partial curve, poor fit]

**Q.** For `CC(=O)Nc1ccc(S(=O)(=O)N2CCC(N3CCCCCC3)CC2)cc1`, which Potency is on record?
**A.** inconclusive: 2.24 µM [inhibitor, full curve, poor fit]

**Q.** `Cc1ccc(NC(=O)N2CCN(c3ncccc3C(F)(F)F)CC2)cc1` was tested. Which Potency did it give?
**A.** inconclusive: 112 µM [inhibitor, single point]

**Q.** `COc1ccc(NC(=O)CCc2ncc(-c3ccccc3F)o2)cc1Cl` was tested. Which “activity change, negative = inhibition” value did it give?
**A.** inactive: 26.3%
